Test results as given in US20260325464A1, “COMPOSITIONS FOR MODULATING THE EXPRESSION OF AQUAPORINS IN NEURODEGENERATIVE DISORDERS” (priority 2023, published 2026).
Marks after values point to notes of the source that are not given here.

Assays:
BDNF = BDNF level in brain homogenate (ELISA), AlCl3 Alzheimer's model; format: in vivo, rat; details: 5 mg/kg, p.o. + AlCl3 (100 mg/kg, i.p.), Mean ± SEM, n = 6
Source text: (§1) Transl Psychiatry. 2019; 9(1):207.
Brain-derived neurotrophic factors (BDNFs) play an important role in maintaining synaptic plasticity in learning and memory. Depletion of BDNF has been linked with Aβ accumulation, tau phosphorylation, neuroinflammation and neuronal apoptosis. Considering AD as a synaptic disorder, BDNF has attracted increasing attention as a potential diagnostic biomarker and a therapeutical molecule for AD. In the current study, BDNF levels were determiner using ELISA kit (Krishgen Biosystems, India).

[1] = test system: acetylcholinesterase (AChE); details: 5 mg/kg, p.o. + AlCl3 (100 mg/kg, i.p.); brain homogenate; Mean ± SEM, n = 6
[2] = test system: frontal cortex and hippocampus; test: Brain histopathology (H&E), AlCl3 Alzheimer's model; format: in vivo, rat; details: 5 mg/kg, p.o.
Source text: as §1
The brain histopathology was done for all the experimental groups. The brain tissue was fixed in 10% buffered neutral formalin solution. The tissue was embedded in paraffin, sectioned at […] stained with hematoxylin and eosin (H&E). The sections were examined under light microscope to study the architecture of the brain tissue, and then photomicrographs were taken (Fischer A H, Jacobson K A, Rose J, Zeller R. Hematoxylin and eosin staining of tissue and cell sections. CSH Protoc. 2008:1;pdb.prot4986. doi: 10.1101/pdb.prot4986).

Alzheimer's disease = test: Novel object recognition (NOR) test in rats with AlCl3-induced Alzheimer's disease; format: in vivo, rat; details: 5 mg/kg, p.o. + AlCl3 (100 mg/kg, i.p.); NOR at 15th day; Mean ± SEM, n = 6
Protocol: as §1
Novel object recognition (NOR)—Novel object recognition (NOR)—This test was performed as per reported protocol (Antunes M, Biala G. The novel object recognition memory: neurobiology, test procedure, and its modifications. Cognit. Process. 2012:13, 93-110). During the retrieval phase, the animal was allowed to explore the field for 10 min. The hippocampal functions were assessed through the recognition indices, which were measured according to the time spent by the animals to explore the familiar and new objects.
The test is a relatively fast and efficient means for testing learning and memory in an animal model. The test relies on only three sessions: one habituation session, one training session, and one test session and relies on rodents' natural proclivity for exploring novelty. This is a relatively low-stress, efficient test for memory in an animal model, and is appropriate for the detection of neuropsychological changes after the administration of test drugs (Lupetow L, Novel Object Recognition Test for the Investigation of Learning and Memory in Mice, J Vis Exp. 2017; (126): 55718).

`COc1cc2c(cc1OC)C(=O)C(CC1CCN(Cc3ccccc3)CC1)C2` (centres unmarked) [Donepezil, reference compound] was tested, and the BDNF (BDNF) was 31.51 ± 2.07 pg/mL, the “Ach E” value [1] was 4.25 ± 0.48** 10^−6 /mol/g of tissue and the “histopathology of frontal cortex” value ([2]; FIG. 8A) was “intact pyramidal cells having round to oval vesicular nucleus with abundant cytoplasm, neuroglial cells, granular cells and intact blood vessels with degenerated cells [focal] with dystrophic changes having shrunken and hyperchromatic nuclei”. The “histopathology of hippocampus (CA1, CA2, CA3)” value ([2]; FIG. 8B-D) was “intact architecture consisting of Cornu Ammonis [CA] and dentate gyrus with compact layers of small pyramidal cells having vesicular nuclei and moderate cytoplasm without shrinkage and necrosis with some degenerated cells with mild dystrophic changes having shrunken and hyperchromatic nuclei” and the “% Recognition Index” value (Alzheimer's disease) was 62.58 ± 2.74 %.
